Reference: article PMC6199744, “Development of Chemical Proteomics for the Folateome and Analysis of the Kinetoplastid Folateome” (ACS Infectious Diseases, 2018)
This continues a long series; more values of the same kind are listed elsewhere.

Tested on: L. major lysate proteins
Experiment: Multitargeted bead mixture chemoproteomics, single concentration competition, proteome-wide
Assay type: binding
Details: for fold change: vehicle control = 1

Nc1nc2cccc(-c3ccccc3)c2n1Cc1ccc(Cl)c(Cl)c1 [compound 3]
fold change (protein LMJF.11.0630 AMINOPEPTIDASE, PUTATIVE,METALLO-PEPTIDASE, CLAN MF, FAMILY M17): 1.14
fold change (protein LMJF.11.1160 PROTEIN TRANSPORT PROTEIN SEC31, PUTATIVE): 0.96
fold change (protein LMJF.12.0030 […]-1 SUBUNIT, PUTATIVE): 1.11
fold change (protein LMJF.12.0530 GLUCOSE-6-PHOSPHATE ISOMERASE): 1.16
fold change (protein LMJF.12.0670 […] OXIDASE SUBUNIT IV): 0.99
fold change (protein LMJF.13.0570 40S RIBOSOMAL PROTEIN S12, PUTATIVE): 0.97
fold change (protein LMJF.13.1190 ADENYL[…], PUTATIVE): 0.94
fold change (protein LMJF.13.1660 CHAPERONIN TCP20, PUTATIVE): 1.06
fold change vs vehicle control (protein LMJF.14.0190 HY[…], CONSERVED): 0.96
fold change (protein LMJF.14.0460 CYS[…]-LYASE-LIKE PROTEIN): 0.96
fold change (protein LMJF.14.0680 FATTY ACID ELONGASE, PUTATIVE): 1.17
fold change (protein LMJF.14.1160 ENOLASE): 1.08
fold change (protein LMJF.14.1440 HY[…], CONSERVED): 1.03
fold change (protein LMJF.15.0190 HY[…], CONSERVED): 1.06
fold change (protein LMJF.15.1160 TR[…]): 1.1
fold change vs vehicle control (protein LMJF.15.1380 NUCLEOLAR RNA BINDING PROTEIN, PUTATIVE): 1.07
fold change (protein LMJF.16.0760 TRANSALDOLASE, PUTATIVE): 1.1
fold change (protein LMJF.16.0940 DYNEIN LIGHT CHAIN, PUTATIVE): 0.97
fold change (protein LMJF.17.0081 […] 1-ALPHA): 1.06
fold change (protein LMJF.17.0980 HY[…], CONSERVED): 1
fold change (protein LMJF.18.0210 HY[…], CONSERVED): 1.11
fold change (protein LMJF.18.0580 P[…]-COA HYDRATASE, PUTATIVE): 0.97
fold change (protein LMJF.18.0680 CITRATE SYNTHASE, PUTATIVE): 1
fold change (protein LMJF.18.0740 […] TU, PUTATIVE): 0.96
fold change (protein LMJF.18.1010 DYNEIN LIGHT CHAIN 2B, CYTOPLASMIC, PUTATIVE): 1
fold change vs vehicle control (protein LMJF.18.1210 PROLYL-TRNA SYNTHETASE, PUTATIVE,BI[…]-TRNA SYNTHETASE, PUTATIVE): 1.07
fold change (protein LMJF.18.1380 PYRUVATE DEHYDROGENASE E1 COMPONENT ALPHA SUBUNIT, PUTATIVE): 1.01
fold change (protein LMJF.19.0100 FIBRILLARIN, PUTATIVE): 0.85
fold change vs vehicle control (protein LMJF.19.0710 […] DEHYDROGENASE): 1.45
fold change (protein LMJF.19.0750 HY[…], CONSERVED): 0.95
fold change (protein LMJF.19.0995 4-COUMARATE:COA LIGASE-LIKE PROTEIN): 1.16
fold change (protein LMJF.19.1010 HY[…], CONSERVED): 1.26
fold change (protein LMJF.19.1420 CYSTEINE PEPTIDASE A (CPA)): 0.98
fold change (protein LMJF.19.1560 INOSINE-5'-MONOPHOSPHATE DEHYDROGENASE): 1.08
fold change vs vehicle control (protein LMJF.19.1620 POTASSIUM VOLTAGE-GATED CHANNEL, PUTATIVE): 1.06
fold change (protein LMJF.21.0280 HY[…], CONSERVED): 1.15
fold change (protein LMJF.21.0540 LA RNA BINDING PROTEIN, PUTATIVE): 1.27
fold change (protein LMJF.21.1090 T-COMPLEX PROTEIN 1, DELTA SUBUNIT, PUTATIVE): 1
fold change vs vehicle control (protein LMJF.21.1552 RNA HELICASE, PUTATIVE): 1.09
fold change (protein LMJF.21.1710 […] OXIDASE SUBUNIT VI, PUTATIVE): 0.92
fold change (protein LMJF.21.1830 […] 5 SUBUNIT, PUTATIVE): 1.21
fold change (protein LMJF.22.0420 40S RIBOSOMAL PROTEIN S15, PUTATIVE): 1.1
fold change (protein LMJF.22.1360 FARNESYL PYR[…]): 0.95
fold change (protein LMJF.22.1450 CYCLOPHILIN 6, PUTATIVE): 0.98
fold change (protein LMJF.23.0040 PEROXIDOXIN): 1.01
fold change (protein LMJF.23.0200 ENDORI[…]-PSP (PB5), PUTATIVE): 0.98
fold change (protein LMJF.23.0560 KINESIN, PUTATIVE): 0.88
fold change (protein LMJF.25.1710 PYRUVATE DEHYDROGENASE E1 BETA SUBUNIT, PUTATIVE): 1.07
fold change (protein LMJF.26.0280 HY[…], CONSERVED): 1.26
fold change (protein LMJF.26.0830 […], PUTATIVE): 0.79
fold change (protein LMJF.27.0190 […] 7 SUBUNIT, PUTATIVE): 1.06
fold change (protein LMJF.27.0560 PROTEIN KINASE, PUTATIVE,CDC2-RELATED KINASE, PUTATIVE): 1.07
fold change (protein LMJF.27.0760 GTP-binding protein homologue): 1.06
fold change (protein LMJF.27.0930 ISOVALERYL-COA DEHYDROGENASE, PUTATIVE): 1.11
fold change (protein LMJF.27.1260 T-COMPLEX PROTEIN 1, BETA SUBUNIT, PUTATIVE): 1.01
fold change (protein LMJF.27.1300 HY[…], CONSERVED): 1.07
fold change (protein LMJF.27.1390 60S ACIDIC RIBOSOMAL SUBUNIT PROTEIN, PUTATIVE): 1.14
fold change (protein LMJF.27.2330 GTP BINDING PROTEIN, PUTATIVE): 1.11
fold change (protein LMJF.28.0960 40S RIBOSOMAL PROTEIN S14): 1.22
fold change (protein LMJF.28.2260 […] PROTEIN, PUTATIVE): 1.12
fold change (protein LMJF.28.2420 2-OXOGLUTARATE DEHYDROGENASE, E2 COMPONENT, DIHYDROLIPOAMIDE SUCCINYLTRANSFERASE, PUTATIVE): 0.94
fold change (protein LMJF.28.2430 VACUOLAR ATP SYNTHASE SUBUNIT B, PUTATIVE): 0.9
